These are yes or no findings as the source states them, for the method shown. Binding seen in cells or lysates may run through a third protein. Some results given as binding are weak or reduced against the parent protein; the word gives no strength.
Assays:
FLAG-BAHCC1^BAH = FLAG-BAHCC1^BAH (UniProt Q9P281); experiment: co-IP
[1] = target: BRG1 (BRM/SWI2-related gene 1), endogenous in 501mel cells (human (endogenous in 501mel)) (UniProt P51532); experiment: co-IP

By UniProt entry, the sequences of proteins in these tests, tags left out. Where a name states a change or a piece, a line headed by the entry shows the natural chain unless it says otherwise.
UniProt Q9P281: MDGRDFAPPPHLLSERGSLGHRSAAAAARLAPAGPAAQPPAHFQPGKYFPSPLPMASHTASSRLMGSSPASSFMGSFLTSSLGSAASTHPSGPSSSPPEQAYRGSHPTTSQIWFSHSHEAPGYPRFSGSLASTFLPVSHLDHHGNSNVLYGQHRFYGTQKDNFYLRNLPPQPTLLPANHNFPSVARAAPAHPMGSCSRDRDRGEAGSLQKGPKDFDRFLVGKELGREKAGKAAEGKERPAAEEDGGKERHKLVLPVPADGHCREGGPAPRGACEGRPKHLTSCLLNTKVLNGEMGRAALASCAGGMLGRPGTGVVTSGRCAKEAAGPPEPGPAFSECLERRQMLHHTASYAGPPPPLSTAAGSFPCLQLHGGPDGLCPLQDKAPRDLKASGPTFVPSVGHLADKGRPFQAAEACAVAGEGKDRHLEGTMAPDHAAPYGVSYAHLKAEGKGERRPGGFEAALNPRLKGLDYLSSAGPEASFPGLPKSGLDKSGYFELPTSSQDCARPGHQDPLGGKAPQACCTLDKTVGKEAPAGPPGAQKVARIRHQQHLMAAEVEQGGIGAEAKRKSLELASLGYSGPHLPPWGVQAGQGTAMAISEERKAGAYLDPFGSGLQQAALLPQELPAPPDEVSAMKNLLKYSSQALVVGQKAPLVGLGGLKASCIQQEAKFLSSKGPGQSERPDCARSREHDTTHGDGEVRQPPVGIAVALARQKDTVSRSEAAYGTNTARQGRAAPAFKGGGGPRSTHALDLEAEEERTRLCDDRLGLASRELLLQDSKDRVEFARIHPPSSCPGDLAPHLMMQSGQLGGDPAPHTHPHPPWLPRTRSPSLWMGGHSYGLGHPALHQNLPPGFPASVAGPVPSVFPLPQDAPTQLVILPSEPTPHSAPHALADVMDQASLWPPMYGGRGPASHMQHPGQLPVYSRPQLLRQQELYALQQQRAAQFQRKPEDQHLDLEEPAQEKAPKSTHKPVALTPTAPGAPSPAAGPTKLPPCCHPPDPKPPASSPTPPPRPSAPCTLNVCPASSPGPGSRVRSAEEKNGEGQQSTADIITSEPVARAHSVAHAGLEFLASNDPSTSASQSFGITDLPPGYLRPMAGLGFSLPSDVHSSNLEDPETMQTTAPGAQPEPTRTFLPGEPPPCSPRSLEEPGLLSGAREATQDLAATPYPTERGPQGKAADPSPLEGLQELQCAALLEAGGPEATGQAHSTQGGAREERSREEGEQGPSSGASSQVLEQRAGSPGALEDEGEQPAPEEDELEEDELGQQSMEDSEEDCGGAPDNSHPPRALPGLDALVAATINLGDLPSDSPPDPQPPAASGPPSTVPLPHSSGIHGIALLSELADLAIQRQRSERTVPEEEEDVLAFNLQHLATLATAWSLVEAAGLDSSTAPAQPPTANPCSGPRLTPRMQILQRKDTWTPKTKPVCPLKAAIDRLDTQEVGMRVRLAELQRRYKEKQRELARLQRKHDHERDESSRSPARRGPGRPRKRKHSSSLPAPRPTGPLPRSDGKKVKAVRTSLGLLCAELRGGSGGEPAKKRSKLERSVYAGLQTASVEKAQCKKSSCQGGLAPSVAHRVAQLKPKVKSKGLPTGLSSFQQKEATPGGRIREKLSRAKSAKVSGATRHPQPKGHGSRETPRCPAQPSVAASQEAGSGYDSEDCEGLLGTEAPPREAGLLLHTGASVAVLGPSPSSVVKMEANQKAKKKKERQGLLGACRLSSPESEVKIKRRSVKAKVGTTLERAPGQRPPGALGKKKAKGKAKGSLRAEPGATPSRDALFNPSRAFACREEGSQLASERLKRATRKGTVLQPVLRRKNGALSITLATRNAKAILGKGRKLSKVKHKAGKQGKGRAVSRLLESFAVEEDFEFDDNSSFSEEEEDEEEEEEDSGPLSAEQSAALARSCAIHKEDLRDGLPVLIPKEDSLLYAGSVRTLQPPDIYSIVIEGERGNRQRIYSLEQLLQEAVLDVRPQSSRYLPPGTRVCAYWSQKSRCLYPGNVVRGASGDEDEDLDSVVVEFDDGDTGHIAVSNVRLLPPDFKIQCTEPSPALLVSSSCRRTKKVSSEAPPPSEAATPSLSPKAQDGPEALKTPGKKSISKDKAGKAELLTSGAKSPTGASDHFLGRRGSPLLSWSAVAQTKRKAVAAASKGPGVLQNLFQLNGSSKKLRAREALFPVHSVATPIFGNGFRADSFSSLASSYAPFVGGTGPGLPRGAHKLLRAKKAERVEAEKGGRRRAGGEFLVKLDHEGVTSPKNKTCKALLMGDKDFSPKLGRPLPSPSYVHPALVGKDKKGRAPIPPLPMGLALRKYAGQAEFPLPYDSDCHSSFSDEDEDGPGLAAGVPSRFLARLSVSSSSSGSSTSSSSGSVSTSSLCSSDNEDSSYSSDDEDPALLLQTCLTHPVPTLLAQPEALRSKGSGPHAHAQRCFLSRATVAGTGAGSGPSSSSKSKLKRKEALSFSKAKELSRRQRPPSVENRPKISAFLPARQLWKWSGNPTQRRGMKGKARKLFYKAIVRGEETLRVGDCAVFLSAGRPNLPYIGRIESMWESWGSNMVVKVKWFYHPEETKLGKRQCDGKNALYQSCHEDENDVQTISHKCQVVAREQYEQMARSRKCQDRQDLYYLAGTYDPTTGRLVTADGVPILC
UniProt P51532: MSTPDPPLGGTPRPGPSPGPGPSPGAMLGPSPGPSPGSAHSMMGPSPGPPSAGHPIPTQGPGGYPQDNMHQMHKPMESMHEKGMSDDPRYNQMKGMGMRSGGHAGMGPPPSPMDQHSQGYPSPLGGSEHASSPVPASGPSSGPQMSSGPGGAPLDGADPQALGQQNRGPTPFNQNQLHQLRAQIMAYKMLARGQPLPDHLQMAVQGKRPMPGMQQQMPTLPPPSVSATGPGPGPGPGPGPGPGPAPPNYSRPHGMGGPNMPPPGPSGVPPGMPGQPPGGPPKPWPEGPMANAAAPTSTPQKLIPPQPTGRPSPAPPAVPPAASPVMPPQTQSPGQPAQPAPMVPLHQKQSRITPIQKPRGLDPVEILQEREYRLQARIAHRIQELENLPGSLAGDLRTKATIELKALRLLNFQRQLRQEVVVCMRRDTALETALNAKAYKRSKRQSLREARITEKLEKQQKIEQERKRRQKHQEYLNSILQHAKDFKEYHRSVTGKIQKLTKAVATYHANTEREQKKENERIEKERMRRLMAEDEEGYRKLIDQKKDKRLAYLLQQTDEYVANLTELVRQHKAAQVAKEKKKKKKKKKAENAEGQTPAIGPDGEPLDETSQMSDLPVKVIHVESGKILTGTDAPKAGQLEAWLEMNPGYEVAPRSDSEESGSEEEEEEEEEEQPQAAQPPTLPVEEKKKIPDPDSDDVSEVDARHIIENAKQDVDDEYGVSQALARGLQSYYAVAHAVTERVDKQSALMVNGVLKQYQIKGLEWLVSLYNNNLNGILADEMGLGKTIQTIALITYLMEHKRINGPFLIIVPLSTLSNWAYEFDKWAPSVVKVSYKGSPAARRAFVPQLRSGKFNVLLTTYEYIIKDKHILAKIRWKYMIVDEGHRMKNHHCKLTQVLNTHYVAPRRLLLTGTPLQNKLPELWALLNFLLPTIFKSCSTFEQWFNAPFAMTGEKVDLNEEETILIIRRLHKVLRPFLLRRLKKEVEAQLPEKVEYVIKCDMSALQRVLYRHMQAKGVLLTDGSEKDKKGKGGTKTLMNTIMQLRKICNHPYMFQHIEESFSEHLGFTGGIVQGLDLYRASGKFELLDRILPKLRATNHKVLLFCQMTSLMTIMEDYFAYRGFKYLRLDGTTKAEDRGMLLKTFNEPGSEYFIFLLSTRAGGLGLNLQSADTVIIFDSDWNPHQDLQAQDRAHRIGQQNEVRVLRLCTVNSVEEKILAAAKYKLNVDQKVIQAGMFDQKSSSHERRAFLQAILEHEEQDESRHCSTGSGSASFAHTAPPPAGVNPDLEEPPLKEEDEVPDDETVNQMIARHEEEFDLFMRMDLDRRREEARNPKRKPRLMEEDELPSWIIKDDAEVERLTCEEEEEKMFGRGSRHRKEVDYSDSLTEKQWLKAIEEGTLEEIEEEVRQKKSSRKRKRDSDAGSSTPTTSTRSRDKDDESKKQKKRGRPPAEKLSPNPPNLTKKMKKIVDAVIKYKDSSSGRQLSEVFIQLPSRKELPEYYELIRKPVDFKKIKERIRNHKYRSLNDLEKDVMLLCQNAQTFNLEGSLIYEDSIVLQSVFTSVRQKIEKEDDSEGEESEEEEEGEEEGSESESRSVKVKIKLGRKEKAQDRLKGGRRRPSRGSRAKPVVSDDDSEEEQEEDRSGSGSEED
UniProt Q8TAQ2: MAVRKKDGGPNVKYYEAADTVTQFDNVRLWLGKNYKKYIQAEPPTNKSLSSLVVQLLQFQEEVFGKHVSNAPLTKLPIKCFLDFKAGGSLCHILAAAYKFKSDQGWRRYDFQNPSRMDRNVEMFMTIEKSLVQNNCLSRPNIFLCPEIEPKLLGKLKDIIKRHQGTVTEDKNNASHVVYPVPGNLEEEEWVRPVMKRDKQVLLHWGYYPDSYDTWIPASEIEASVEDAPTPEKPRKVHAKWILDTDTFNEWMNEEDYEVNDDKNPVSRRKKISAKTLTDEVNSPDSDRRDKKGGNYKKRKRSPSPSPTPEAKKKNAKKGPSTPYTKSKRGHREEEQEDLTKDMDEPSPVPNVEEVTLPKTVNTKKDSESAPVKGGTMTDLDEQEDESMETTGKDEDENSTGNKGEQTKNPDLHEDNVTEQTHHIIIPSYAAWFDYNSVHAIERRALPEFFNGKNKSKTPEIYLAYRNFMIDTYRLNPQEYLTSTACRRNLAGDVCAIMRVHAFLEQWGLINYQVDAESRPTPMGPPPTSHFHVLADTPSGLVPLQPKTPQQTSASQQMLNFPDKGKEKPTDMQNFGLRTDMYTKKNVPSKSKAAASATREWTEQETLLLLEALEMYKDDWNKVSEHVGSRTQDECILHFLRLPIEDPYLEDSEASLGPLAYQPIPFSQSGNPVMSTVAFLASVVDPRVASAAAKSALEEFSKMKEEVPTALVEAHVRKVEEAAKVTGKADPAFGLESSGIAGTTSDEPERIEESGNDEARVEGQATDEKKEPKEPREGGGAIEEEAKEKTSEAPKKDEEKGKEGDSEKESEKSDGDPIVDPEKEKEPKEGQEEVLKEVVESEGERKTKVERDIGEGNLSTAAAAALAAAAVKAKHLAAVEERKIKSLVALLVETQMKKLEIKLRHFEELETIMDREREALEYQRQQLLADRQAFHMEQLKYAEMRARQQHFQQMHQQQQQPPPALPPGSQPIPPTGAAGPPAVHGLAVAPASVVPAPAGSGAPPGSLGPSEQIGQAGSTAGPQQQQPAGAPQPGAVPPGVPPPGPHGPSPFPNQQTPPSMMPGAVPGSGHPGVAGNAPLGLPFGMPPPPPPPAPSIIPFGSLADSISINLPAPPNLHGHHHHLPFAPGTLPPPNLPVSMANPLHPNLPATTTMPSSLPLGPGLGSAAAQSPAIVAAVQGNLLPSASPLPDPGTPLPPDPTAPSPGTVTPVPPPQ

Row | Substance | binding (FLAG-BAHCC1^BAH) | binding [1]
1 | BRG1 (BRM/SWI2-related gene 1), endogenous in HEK293T cells (from UniProt P51532 1-1647) | binds | –
2 | Bromo Adjacent Homology and Coiled Coil Domain-Containing 1 (BAHCC1), endogenous (from UniProt Q9P281 1-2639) | – | binds
3 | HA-BAHCC1^BAH (stably expressed in 501mel) (from UniProt Q9P281 2513-2633) (domain or fragment) | – | binds
4 | SMARCC2 (from UniProt Q8TAQ2 1-1214) | – | binds

Reference: doi:10.1101/2023.01.18.524519
